Data set [1] addresses T1, CcpA (Bacillus licheniformis) (UniProt Q65G28).
T1 sequence (looked up, limits assumed): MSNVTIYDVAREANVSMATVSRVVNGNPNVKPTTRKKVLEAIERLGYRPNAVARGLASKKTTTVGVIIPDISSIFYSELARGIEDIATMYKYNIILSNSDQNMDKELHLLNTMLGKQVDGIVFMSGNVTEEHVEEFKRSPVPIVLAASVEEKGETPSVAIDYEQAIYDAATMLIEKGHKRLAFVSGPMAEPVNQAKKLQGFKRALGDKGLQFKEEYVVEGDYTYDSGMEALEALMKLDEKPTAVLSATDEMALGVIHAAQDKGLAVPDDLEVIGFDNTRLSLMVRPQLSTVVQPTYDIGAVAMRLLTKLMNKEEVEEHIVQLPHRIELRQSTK
Description: EMSA. Conditions: 10 nM biotin probe, 10 mM Tris-HCl pH 7.4, 1 mM DTT, 1 mM EDTA, 50 mM KCl, 1 mM MgCl2, 0.05 ug/uL poly(dI-dC), 25 C, 20 min; 4% acrylamide, 0.5x TBE; recombinant protein; protein details: His-tag; label: biotin.

The target of data set [2] is T2, MtlR (Bacillus licheniformis) (UniProt Q62YQ4).
T2 sequence (looked up, limits assumed): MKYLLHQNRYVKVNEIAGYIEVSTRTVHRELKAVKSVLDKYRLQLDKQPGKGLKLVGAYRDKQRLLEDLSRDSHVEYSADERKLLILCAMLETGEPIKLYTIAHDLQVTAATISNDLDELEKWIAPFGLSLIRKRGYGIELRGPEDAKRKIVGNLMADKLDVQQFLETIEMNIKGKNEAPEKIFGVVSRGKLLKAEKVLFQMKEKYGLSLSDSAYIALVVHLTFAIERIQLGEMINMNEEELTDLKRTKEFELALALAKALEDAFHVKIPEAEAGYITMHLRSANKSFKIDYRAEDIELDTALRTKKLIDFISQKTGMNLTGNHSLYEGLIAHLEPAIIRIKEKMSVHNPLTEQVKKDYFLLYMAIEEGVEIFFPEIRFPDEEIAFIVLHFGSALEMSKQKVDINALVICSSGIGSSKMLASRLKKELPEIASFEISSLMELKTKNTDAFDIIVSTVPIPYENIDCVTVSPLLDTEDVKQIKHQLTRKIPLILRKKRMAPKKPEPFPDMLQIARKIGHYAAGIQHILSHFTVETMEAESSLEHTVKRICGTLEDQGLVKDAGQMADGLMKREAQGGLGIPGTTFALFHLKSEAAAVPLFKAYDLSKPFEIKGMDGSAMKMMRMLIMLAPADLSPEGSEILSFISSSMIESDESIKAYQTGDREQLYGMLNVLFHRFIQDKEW
Description: EMSA. The following applies: 0.5, 1.0 uM MtlR; 10 nM biotin probe, 10 mM Tris-HCl pH 7.4, 1 mM DTT, 1 mM EDTA, 50 mM KCl, 1 mM MgCl2, 0.05 ug/uL poly(dI-dC), 25 C, 20 min; 4% acrylamide, 0.5x TBE; recombinant protein; protein details: His-tag; label: biotin. Background: Mobility shift assays separate free from complexed probe on a gel.

Construct, isoform or probe ends are uncertain for at least one entry. For some assays here: Negatives hold for the conditions tested. Where a protein sequence is shown, tags need not be part of it.

In the case of “TCCCCGTCAGATGGCCGGGAGCCGGATGAACCACCATTCCGCGCGGCTTGTTGACGACAAGAACGTCCTGATCTTATTATAATATAAGCAAAAAACTCTTGTCATCCTGCCAAATAAAAAGGAAAAGCATTGACCTGAAAACTTATCGGTAAAGTATGATATAATACAAAAAGACCGATTAGAGGGGAGAGAGGAAACATGCCTTCAGTTGAAAGTTTTGAACTTGACCATAATGCAGTAAAAGCGCCTTACGTCAGACACTGCGGCGTCCATAAAGTGGGATCCCTCGAGCGG (double strand) [A-4 (MtlR box 4)]”, the binding result was “no binding” in data set [1] and “binds” in data set [2].

The values above are taken from publication PMC10992428.
